The list shows a part of the results. These are further read-outs of the screen, such as a control signal, another cell line or another target. No call is given for them. The list favours compounds with an active or inconclusive main result. Words in brackets tell the shape of the fitted curve; partial curves, single points and poor fits give uncertain potencies.
Assay: qHTS Assay for Lipid Storage Modulators in Drosophila S3 Cells;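 for cell number change: cells counted by Cell Tracker Red CMTPX staining in the red channel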
Settings: BODIPY lipid droplet fluorescence, 18-24 h; for cell number change: measured here: cell count max response, cells fed with added oleic acid
Procedure, shortened: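 Drosophila S3 cells got compounds at several concentrations plus oleic acid (400 uM solution). Laser-scanning cytometry with 488 nm excitation read lipid droplets at 500-530 nm and cells at 575-640 nm. Percent activity was relative to 20 uM Triacsin C.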

[1] = measured here: lipid fluorescence (Fed channel) AC50, cells fed with added oleic acid
[2] = measured here: cell number channel AC50, cells fed with added oleic acid

Compound	cell number change [%]	AC50 [1]	AC50 [2]
CCOCC(=O)N1CCC(Cc2ccccc2)CC1	38.8	29.1 µM [rising, single point]	–
COc1ccccc1N1CCN(CCCCN2C(=O)C3CCCCN3C2=O)CC1 (centres undefined)	11.3	29.1 µM [rising, single point]	–
CCOC(=O)C(=CNc1ccc2c(c1)c1ccccc1n2CC)C(=O)OCC	0.12	5.17 µM [rising, partial curve]	–
CCc1c(C)nc(SCC(=O)Nc2ccc(Br)cc2)[nH]c1=O	–	0.013 µM [falling, full curve]	0.651 µM [falling, single point]
O=C(O)Cn1c(P(=O)(O)c2ccccc2)nc2ccccc21	-13.5	–	–
CC(C)Oc1ccc(C(=O)Nc2ccccc2N2CCCC2)cc1	0.322	2.91 µM [falling, partial curve]	–
Cc1ccc(-c2csc(C3=C(O)CN(NC(=O)c4ccc([N+](=O)[O-])cc4)C3=N)n2)cc1	-61.8	–	–
Cc1ccsc1C(=O)N1CCN(S(=O)(=O)c2cccs2)CC1	–	0.116 µM [rising, full curve, poor fit]	–
COc1ccc(-c2cc(C(F)(F)F)n3nc(C(=O)NCc4ccco4)cc3n2)cc1OC	-48.1	25.9 µM [falling, partial curve]	0.184 µM [falling, full curve, poor fit]
Cc1ccccc1C(=O)Nc1ccc(Br)cn1	-11.3	0.82 µM [falling, full curve, poor fit]	–
COc1ccc(OC)c(C2/C(=C(\O)c3ccc(OC)c(Cl)c3)C(=O)C(=O)N2CCN(C)C)c1 (centres undefined)	-198	–	23.1 µM [falling, partial curve]
COc1ccccc1-c1nc(C#N)c(N2CC(C)CC(C)C2)o1 (centres undefined)	-35.1	–	–
COc1ccc(NC(=O)C2CCCN(c3ncccn3)C2)cc1 (centres undefined)	21	–	0.164 µM [rising, full curve, poor fit]
COc1ccc(OC)c(NC(=O)C(=O)NCCC2=CCCCC2)c1	-3.74	3.26 µM [rising, single point]	–
CC(C)=CC(=O)Nc1nc2ccc([N+](=O)[O-])cc2s1	-5.54	–	–
CCOC(=O)N1CCN(C(=O)c2ccc(N3CC4CC(C3)c3cccc(=O)n3C4)c(NC(=O)c3ccc(F)cc3)c2)CC1 (centres undefined)	15.3	–	–
CCCCC(CC)C(=O)Nc1cc(C(=O)NCc2ccc(C)cc2)ccc1N1CCC2(CC1)CC(c1ccccc1)=NO2 (centres undefined)	45.3	–	32.6 µM [rising, partial curve]
COc1ccc(-c2cc(N3CCCC3)n3ncnc3n2)cc1	–	6.51 µM [rising, single point]	2.06 µM [rising, partial curve]
CCC(C)c1ccccc1NC(=O)CN(C)CC(=O)Nc1ccccc1SC (centres undefined)	-2.02	0.13 µM [falling, full curve, poor fit]	–
CN(C(=O)CSC(=O)c1ccccc1)c1ccccc1	-7.62	6.51 µM [rising, single point]	–
N#C/C(=C\c1c(F)cccc1Cl)c1nn(-c2ccccc2)c(-n2cccc2)c1C#N	9.76	0.731 µM [rising, full curve, poor fit]	–

Compound	cell number change [%]	AC50 [1]	AC50 [2]
COC(=O)c1cc2occc2n1Cc1nc(-c2ccccc2Cl)oc1C	-19.2	9.2 µM [rising, partial curve]	–
CCCCN1CCc2c1nc1ccc(Br)cc1c2N	–	5.17 µM [falling, single point]	–
Cc1cccc(NC(=O)CN2C(=O)CCSc3ccc(S(=O)(=O)N4CCOCC4)cc32)c1C	26.7	–	–
Cc1ccc(S(=O)(=O)N/N=C/c2cn(C)nc2C)cc1	32.4	–	3.26 µM [rising, partial curve, poor fit]
COc1ccc(N2C(=O)NC3CC2(C)Oc2ccc(Br)cc23)cc1OC (centres undefined)	5.83	–	0.517 µM [falling, partial curve, poor fit]
COc1ccc(C)cc1NC(=O)CN1CCN(c2ccccn2)CC1	2.08	5.17 µM [rising, single point]	–
CCOC(=O)c1cc(-c2ccccc2)n(CCC(=O)N2CCN(c3ccc(OC)cc3)CC2)c1C	5.71	0.651 µM [rising, single point]	–
Cc1nnc(N/N=C/c2c(Cl)cccc2Cl)n1N	-60.6	0.291 µM [falling, full curve, poor fit]	29.1 µM [falling, single point]
O=S1(=O)CC(O)C(Nc2ccccc2)C1 (centres undefined)	-10.7	4.61 µM [falling, single point]	–
O=C(CNC(=O)c1cccc(Br)c1)N/N=C/c1ccc2c(c1)OCO2	14.8	–	–
CSc1ccc(CNC(=O)CCn2ccc3cc(S(=O)(=O)N4CCCC4)ccc32)cc1	16.7	29.1 µM [rising, single point]	–
Cc1cccc(C)c1N(CC(=O)N1CCOCC1)S(C)(=O)=O	–	2.91 µM [falling, single point]	–
COc1ccc(-c2c(-c3ccc4c(c3)OCO4)noc2C)cn1	13.8	0.651 µM [rising, single point]	–
CCC(C)n1ncn(-c2ccc(N3CCN(c4ccc(O)cc4)CC3)cc2)c1=O (centres undefined)	–	0.651 µM [rising, full curve, poor fit]	–
Cc1[nH]c(-c2ccc(F)cc2)cc1C(=O)N1CCN(c2ccccc2)CC1	-17.6	29.1 µM [falling, single point]	–
Cc1ccc(C)c(S(=O)(=O)N2CCCCC2CCNC(=O)C(=O)NCc2ccco2)c1 (centres undefined)	-11	16.4 µM [falling, partial curve, poor fit]	–
COc1ccc(CCNC(=O)COC(=O)c2ccc(N3CCCC3=O)cc2)cc1OC	-22.1	2.06 µM [falling, partial curve]	–
Cc1ccccc1NC(=O)/C(C#N)=C/c1ccsc1	-11.5	11.6 µM [falling, single point]	–
COc1ccc(NC(=O)CC2SC(N3CCOCC3)=NC2=O)cc1OC (centres undefined)	20	29.1 µM [rising, single point]	–
C=CCn1c(=O)/c(=C2/Sc3ccccc3N2CC)s/c1=C1/C(=O)NN=C1C	-13.8	29.1 µM [falling, single point]	–
O=C(CCNC(=O)c1ccccc1Cl)Nc1nnc(C2CC2)s1	67.2	–	29.1 µM [rising, single point]

Compound	cell number change [%]	AC50 [1]	AC50 [2]
COc1cccc(NC(=O)c2cccc(C(=O)Nc3cccc(OC)c3)c2)c1	12.9	0.82 µM [falling, full curve, poor fit]	–
CCOc1ccc(CCNS(=O)(=O)c2ccc(-c3ccc(=O)[nH]n3)o2)cc1OCC	–	6.51 µM [falling, single point]	–
CC1(C)CC(=O)C(N=Nc2c(Cl)cc(Cl)cc2Cl)=C(O)C1	33.1	–	–
Cc1ccc(C(=O)CCC(=O)NCc2ccc(Cl)cc2)cc1	1.34	0.00461 µM [rising, full curve, poor fit]	–
Cc1occc1-c1nnc(SCC(=O)c2cc3ccccc3oc2=O)o1	-12.9	–	–
Cc1[nH]nc(N=CC2=C(O)CC(c3ccco3)CC2=O)c1-c1ccccc1 (centres undefined)	-19.8	20.6 µM [falling, single point]	–
CC1=C(C#N)C(c2ccccc2O)C(C#N)=C(C)N1	57.1	–	–
CCOC(=O)C1CCN(C(=O)c2sc3nc(-c4ccccc4)cn3c2C)CC1	–	3.66 µM [rising, partial curve]	2.31 µM [rising, single point]
CCOc1ccc(NC(=O)N2CCC(NC(=O)C(Cc3ccc(OC)c(OC)c3)NC(C)=O)CC2)cc1 (centres undefined)	16.8	0.0058 µM [rising, full curve, poor fit]	–
COc1ccc(NC(=O)c2c(C)nn(Cc3ccccc3)c2Cl)cc1S(=O)(=O)N1CCOCC1	–	–	0.517 µM [rising, single point]
CCN(c1ccc(OC)cc1)S(=O)(=O)c1cc(-c2cc(C)no2)ccc1OC	–	29.1 µM [falling, single point]	–
CC(=O)N1c2ccc(S(=O)(=O)NCCC(=O)NCCc3ccc(C)cc3)cc2CC1C (centres undefined)	-12.9	6.51 µM [rising, single point]	–
COC(=O)c1ccc(NC(=O)C2CC(=O)OC2c2ccccc2)cc1 (centres undefined)	19.6	0.206 µM [rising, full curve, poor fit]	–
Cc1onc(-c2ccccc2Cl)c1C(=O)Nc1ccccc1N1CCOCC1	15.3	2.06 µM [rising, partial curve]	–
O=C1CC(C(=O)N(c2ccc(F)cc2)C(C(=O)NC2CCCC2)c2ccccn2)CS1 (centres undefined)	–	–	6.51 µM [rising, single point]
CCCc1c(C)c2cc(C)ccc2[nH]c1=O	-20.1	–	–
CC(/C=C/c1ccco1)=N\NC(=O)COc1ccc(C)c(C)c1	-25.1	2.91 µM [falling, full curve, poor fit]	–
COc1ccc(CCNC(=O)CCc2ccc(S(=O)(=O)NCC(C)C)cc2)cc1	–	10.3 µM [rising, partial curve, poor fit]	–
CC(C)CCNC(=O)C1CCCN(S(=O)(=O)c2ccc(-n3cnnn3)cc2)C1 (centres undefined)	0.435	0.58 µM [rising, single point]	–
Cc1csc(SC(C)C(=O)Nc2ccccc2C)n1 (centres undefined)	7.44	14.6 µM [rising, partial curve]	0.461 µM [rising, single point]
Cc1cc(Cl)ccc1OCC(=O)Nc1ccccc1C(=O)N1CCOCC1	-10.7	29.1 µM [falling, single point]	–

Four of the compounds above, with bars between the fields:
Compound | cell number change [%] | AC50 [1] | AC50 [2]
N#C/C(=C\c1c(F)cccc1Cl)c1nn(-c2ccccc2)c(-n2cccc2)c1C#N | 9.76 | 0.731 µM [rising, full curve, poor fit] | –
COC(=O)c1cc2occc2n1Cc1nc(-c2ccccc2Cl)oc1C | -19.2 | 9.2 µM [rising, partial curve] | –
CCCCN1CCc2c1nc1ccc(Br)cc1c2N | – | 5.17 µM [falling, single point] | –
Cc1cccc(NC(=O)CN2C(=O)CCSc3ccc(S(=O)(=O)N4CCOCC4)cc32)c1C | 26.7 | – | –

Source: PubChem BioAssay AID2685 (National Center for Advancing Translational Sciences (NCATS), 2010)
